The results are deposited in PubChem (AID360; NCATS, 2006).

By UniProt entry, the sequences of proteins in these tests, tags left out.
UniProt P04062, whole entry, target on record: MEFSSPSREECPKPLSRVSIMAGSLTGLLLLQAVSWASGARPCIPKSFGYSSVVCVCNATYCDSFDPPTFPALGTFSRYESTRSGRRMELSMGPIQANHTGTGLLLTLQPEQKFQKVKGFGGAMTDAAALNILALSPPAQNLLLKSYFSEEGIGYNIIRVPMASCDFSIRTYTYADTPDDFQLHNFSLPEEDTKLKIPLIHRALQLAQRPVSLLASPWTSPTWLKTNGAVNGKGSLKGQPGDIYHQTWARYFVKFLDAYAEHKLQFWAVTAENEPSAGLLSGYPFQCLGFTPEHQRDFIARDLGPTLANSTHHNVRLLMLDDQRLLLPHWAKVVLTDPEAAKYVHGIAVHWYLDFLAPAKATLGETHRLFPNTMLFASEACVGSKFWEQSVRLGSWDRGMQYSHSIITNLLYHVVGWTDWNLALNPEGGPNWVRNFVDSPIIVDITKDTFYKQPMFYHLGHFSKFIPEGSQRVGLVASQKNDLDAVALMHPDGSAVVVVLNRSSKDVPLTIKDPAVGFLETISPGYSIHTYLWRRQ

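Cleavage of a resorufin-linked glucose substrate by isolated lysosomal acid glucosylceramidase was followed by fluorescence over a 20-minute room-temperature incubation.
Each compound was run as a titration series spanning about 0.6 nM up to 50 µM final.
The number is the fitted half-maximal concentration (AC50); a lower value means a more potent inhibitor.
The record treats a '>' qualifier as no measurable activity (inactive); no explicit numeric cut-off is stated.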

Values are in nM.
Every entry below has the call inactive.
These are entries filed as inactive; the hits of the assay are not listed here.

| SMILES | potency (nM) |
|---|---|
| `CCN(CC)S(=O)(=O)c1csc(C(=O)NCc2ccccc2)c1` | >76900 |
| `CCN(CC)CC(C)(C)NS(=O)(=O)c1ccc(Cl)cc1` | >76900 |
| `CNC(=O)c1ccc(N(Cc2ccccc2)S(C)(=O)=O)cc1` | >76900 |
| `COC(=O)c1sc(S(=O)(=O)Nc2ccc3cn[nH]c3c2)c(C(=O)OC)c1C` | >76900 |
| `COc1cccc(CN(C(=O)c2ccco2)C(C(=O)NC2CCCC2)c2cccnc2)c1` (stereo not shown) | >76900 |
| `CCOC(=O)CNC(=O)c1ccccc1Br` | >76900 |
| `CCOc1ccc(N(CC(N)=O)S(=O)(=O)c2ccc(F)cc2)cc1` | >76900 |
| `C/C(N)=C(/C#N)C(=O)CSc1nnnn1-c1ccc(C)cc1` | >76900 |
| `CC(C)OC(=O)C1C2C=CC3(CN(Cc4cccs4)C(=O)C13)O2` (stereo not shown) | >76900 |
| `O=C(CSc1n[nH]c(-c2ccco2)n1)N1c2ccccc2Sc2ccccc21` | >76900 |
| `CCOC(=O)/C(C(N)=NC(C)C)=C(\O)c1ccccc1` | >76900 |
| `COCCn1nnnc1C(c1cccs1)N1CCN(c2nc3ccccc3s2)CC1` (stereo not shown) | >76900 |
| `Cc1c(C(=O)NCc2ccccc2)oc2c1C(=O)CCC2` | >76900 |
| `CN1C(=O)c2c(sc3c2CC(C)(C)SC3)N2CCN=C12` | >76900 |
| `O=C(CCCCn1c(=O)c2ccccc2n(Cc2ccc(F)cc2Cl)c1=O)NCc1ccco1` | >76900 |
| `COc1ccc(NC(=O)C(Cc2ccccc2)NC(=O)c2ccco2)cc1OC` (stereo not shown) | >76900 |
| `O=C(NCC(=O)N(c1ccc(F)cc1)C(C(=O)NCC1CCCO1)c1ccccc1)c1ccco1` (stereo not shown) | >76900 |
| `Cn1cnc(S(=O)(=O)N2CCc3ccccc32)c1` | >76900 |
| `COc1ccc(-c2nc(SCC(=O)N3CCOCC3)n[nH]2)cc1` | >76900 |
| `O=C(CN1CCN(c2ncccn2)CC1)N(Cc1ccccc1)c1ccc(F)cc1` | >76900 |
| `CC(=O)c1c(C)[nH]c(C(=O)NCCc2cccc(C)c2)c1C` | >76900 |
| `CCn1ncc(Cl)c1C(=O)NC(C)c1ccccc1` (stereo not shown) | >76900 |
| `O=C(NC1CCCCC1)N1CCc2ccccc21` | >76900 |
| `CCOCCCNC(=O)c1c(C)c(C(=O)OCC)n(C)c1C` | >76900 |
| `CN(C)C(=O)c1ccc(NC(=O)c2cccnc2)cc1` | >76900 |
| `O=C1CC(c2cccc(Br)c2)C2=C(CCCC2=O)N1` (stereo not shown) | >76900 |
| `O=C(NCc1ccco1)c1ccccc1Nc1ccc(F)cc1` | >76900 |
| `Cn1c(=O)c2c(nc(NCCO)n2CCc2ccccc2)n(C)c1=O` | >76900 |
| `O=C1CC(C(=O)Nc2ncccn2)C(c2ccccc2)O1` (stereo not shown) | >76900 |
| `Cc1c(C#N)c2ccccc2n1CC(=O)N1CCCC1` | >76900 |
| `COC(=O)c1cccc(NC2CC(=O)N(c3ccc(OC)c(OC)c3)C2=O)c1` (stereo not shown) | >76900 |
| `CCn1c(SC/C=C/c2ccccc2)nnc1-c1cnccn1` | >76900 |
| `CCc1nc(OCCN(C)C)c2oc3ccccc3c2n1` | >76900 |
| `CC(=O)Nc1ccc(S(=O)(=O)N(Cc2ccco2)CC2CCCO2)cc1` (stereo not shown) | >76900 |
| `CCOc1ccc(-n2c(=O)[nH]cc(C(=O)N3CCc4ccccc43)c2=O)cc1` | >76900 |
| `Cc1cc(C)cc(Nc2ncc3c(n2)CC(c2ccco2)CC3=O)c1` (stereo not shown) | >76900 |
| `COC(=O)c1[nH]c2ccc(F)cc2c1NC(=O)CCN1CCN(C(=O)c2ccco2)CC1` | >76900 |
| `Cc1cc(=O)oc2cc(OCC(=O)OCc3nnc(-c4ccccc4)o3)ccc12` | >76900 |
| `CC(C)Nc1nc2n(c(=O)n1)CCN2C(C)C` | >76900 |
| `Cc1nc(NC2=NCN(Cc3cccnc3)CN2)nc2ccccc12` | >76900 |
| `O=C(Nc1ccc(F)cc1F)c1cc(-c2ccco2)on1` | >76900 |
| `Cn1cc(S(=O)(=O)CC(=O)Nc2ccc3c(c2)OCO3)c2ccccc21` | >76900 |
| `Cc1c(NC(=O)CC2CC(C)OC2=O)c(=O)n(-c2ccccc2)n1C` (stereo not shown) | >76900 |
| `O=C(NCCN1Cc2ccccc2C1=O)c1cccs1` | >76900 |
| `CC(C)OC(=O)CSc1nnc(-c2cnccn2)n1C` | >76900 |
| `COc1ccccc1NC(=O)N1CCCC1C(=O)NC1CCCCC1` (stereo not shown) | >76900 |
| `COc1cccc(C(C(=O)NC2CCCC2)N(C(=O)c2ccco2)C2CC2)c1OC` (stereo not shown) | >76900 |
| `COCCOC(=O)C1=C(C)N=C2SCCC(=O)N2C1c1ccc(C(=O)OC)cc1` (stereo not shown) | >76900 |
| `CCCCNC(=O)C1CCN(S(=O)(=O)c2cnc[nH]2)CC1` | >76900 |
| `CC1CCCN(S(=O)(=O)c2cc(Cl)ccc2Cl)C1` (stereo not shown) | >76900 |
| `CC(C)C(NC(=O)CNC(=O)OC(C)(C)C)C(=O)NCc1ccccc1` (stereo not shown) | >76900 |
| `Cc1cc(=O)n(CCc2ccccc2)c(O)c1C#N` | >76900 |
| `COc1cc(OC)cc(C(=O)Nc2cc(NC(=O)c3ccco3)ccc2OC)c1` | >76900 |
| `COc1cccc(-c2ccc(=O)n(CC(=O)NCCN3CCOCC3)n2)c1` | >76900 |
| `COc1ccc(OC)c(NC(=O)CCN2CCCC(C)C2)c1` (stereo not shown) | >76900 |
| `CC(=O)OC(C(=O)NCc1ccco1)c1cccnc1` (stereo not shown) | >76900 |

4 of the entries, repeated:

SMILES	potency (nM)
CC(C)OC(=O)CSc1nnc(-c2cnccn2)n1C	>76900
CCN(CC)CC(C)(C)NS(=O)(=O)c1ccc(Cl)cc1	>76900
CCN(CC)S(=O)(=O)c1csc(C(=O)NCc2ccccc2)c1	>76900
CC(=O)c1c(C)[nH]c(C(=O)NCCc2cccc(C)c2)c1C	>76900